From patent US12514943B2 (priority 2020, dated 2026)

Experiment: Effect of limiting decrease in durability of synthetic adhesives, overall determination
Conditions: 40° C., 16 hours

For `O=P([O-])([O-])O.[K+].[K+]` [dipotassium hydrogen phosphate], the “limiting a decrease in durability of synthetic adhesives (in words)” value was “had no action of limiting a decrease in durability”.
In the case of `O=P([O-])([O-])[O-].[Na+].[Na+].[Na+]` [trisodium phosphate], the “limiting a decrease in durability of synthetic adhesives (in words)” value is reported as “had no action of limiting a decrease in durability”.

Some compounds share one wording; it may come from a single statement.
